From PubChem BioAssay AID493014 (National Center for Advancing Translational Sciences (NCATS), 2011)
Among all 340,000 compounds or so, about 170 (0.05%) were called active. The shares of active, inactive and inconclusive entries below differ from those in the screen. Calls follow the shape of the dose curve; as a rule, active = well fitted inhibition curve with a large enough effect in the signal ratio, with a control signal flat (not every such curve was filed as active); inconclusive = small, poorly fitted or top-dose-only effect, or effect the other way, or a change in a side signal; inactive = flat fitted curve, though single readings scatter; the % refers to the signal ratio. Where the call is inconclusive, the potency comes from a doubtful curve fit.

Test: qHTS Assay to Find Inhibitors of Chronic Active B-Cell Receptor Signaling;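 as to activity change, negative = inhibition: plate controls were basal doxycycline-induced cells for no effect and cells given 10 µM MG132 for full effect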
Details: ABC-DLBCL IkBa-CBG/CBR reporter, luminescence ratio (green luciferase fused to IkBa over red control in TMD8 lymphoma cells), 4 h; activity change, negative = inhibition: at 46.1 µM (top of the series)
Method in brief: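 Compounds up to 46 uM were incubated four hours with TMD8 cells whose green CBG68 luciferase is fused to IkappaBalpha; red CBR luminescence normalised the signal, and concentration-effect curves were fitted to fusion, red and ratio data.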
Potency is read from the fitted curve at half-maximal effect.

| SMILES | activity change, negative = inhibition | Potency |
| --- | --- | --- |
| Nn1c(SCc2ccc(Br)cc2)nnc1-c1cccnc1 | inconclusive: -40.9% | – |
| O=C(COC(=O)C1CC1)Nc1ccc(Cl)cc1Cl | inconclusive: 1.75% | – |
| CCS(=O)(=O)N1CCC(C(=O)Nc2ccccc2OC)CC1 | inactive: -1.56% | – |
| COC(=O)c1cc2c(s1)-c1ccc(OC)cc1CC2 | inconclusive: 20.1% | – |
| CC(C)(C)N(NC(=O)Nc1ccc(Cl)cc1)C(=O)c1ccccc1 | inconclusive: 4.95% | – |
| COc1ccc(-c2nc3ccccc3c(=O)n2NC(=O)c2cccnc2Cl)cc1OC | inconclusive: 6.58% | – |
| Cc1cc(N2CCCCC2)nc(NCc2ccccc2)n1 | inactive: -12.2% | – |
| Cc1cccc(NC(=O)c2c(O)c3ccccc3n(C)c2=O)c1 | inactive: -1.18% | – |
| Cn1c(SCc2ccc(F)cc2)nnc1-c1cnccn1 | inconclusive: 6.32% | – |
| O=S1(=O)CCC(NC(=S)Nc2ccccc2)C1 (configuration not stated) | inactive: -10.5% | – |
| CCOc1ccccc1NC(=O)c1cccc(NC(=O)c2ccco2)c1 | – | inconclusive: 0.731 µM [rising, full curve, poor fit] |
| O=C(N/N=C/c1cccnc1)c1ccc(O)cc1 | – | inconclusive: 3.55 µM [falling, full curve, poor fit] |
| CCCCC(CC)C(=O)Nc1ccc(Cl)cn1 (configuration not stated) | inconclusive: 11.9% | – |
| CCOC(=O)c1sc(NC(=O)Cn2nnc3sc4c(c3c2=O)CCCC4)nc1C | inconclusive: -11.8% | – |
| CCN1CCN(C(c2cccs2)C(C)NC(=S)Nc2cc(C)ccc2C)CC1 (configuration not stated) | inactive: 0.508% | – |
| CCN(C(=O)COc1ccc(C(=O)c2ccccc2)cc1)c1ccccc1 | inconclusive: 18.3% | – |
| O=C(N/N=C/C(Br)=C/c1ccccc1)c1ccccc1[N+](=O)[O-] | – | inconclusive: 25.1 µM [falling, single point] |
| Cc1cc(C(=O)COC(=O)c2ccc3c(c2)NC(=O)CS3)c(C)n1CC1CCCO1 (configuration not stated) | inactive: -5.23% | – |
| Cc1ccc(NC(=O)CNc2ccc(Cl)c(Cl)c2)cc1S(=O)(=O)N(C)C | inconclusive: -2.15% | – |
| NC(=O)N=Nc1c2[nH]c3ccccc3nc-2c2ccccc12 | – | inconclusive: 0.355 µM [rising, partial curve, poor fit] |
| COc1ccc(C)cc1C(=O)CCC(=O)NCCc1ccc(S(N)(=O)=O)cc1 | inactive: -0.919% | – |
| C=CC[C@@H](CC(=O)N(CCO)Cc1ccccc1)C(=O)N[C@H](COC(=O)[C@H](CC=C)CC(=O)OC(C)(C)C)Cc1c[nH]c2ccccc12 | inconclusive: -5.85% | – |
| CCN(CC)S(=O)(=O)c1cccc(NC(=O)c2ccc(SC)cc2OC)c1 | inactive: -5.3% | – |
| c1nc2n(n1)C1=C(CCCC1)C1(CCCCC1)N2 | inactive: 5.2% | – |
| CCOc1ccc(NC(=O)N2CCC(NC(=O)c3ccco3)CC2)cc1 | inconclusive: 0.369% | – |

| SMILES | activity change, negative = inhibition | Potency |
| --- | --- | --- |
| O=C(CCCOc1cccc(Br)c1)NC1CCC(O)CC1 (configuration not stated) | – | inconclusive: 22.4 µM [falling, single point] |
| CN(C)c1ccnc2sc(C(N)=O)c(N)c12 | inconclusive: 0.772% | – |
| C/C(=N\NC(=S)NCCc1ccccc1)c1ccc(Cl)cc1 | inconclusive: 3.9% | – |
| CC(Nc1cccc2ccccc12)C(=O)N/N=C/c1ccccn1 (configuration not stated) | – | inconclusive: 29.1 µM [falling, single point] |
| COc1ccc(/C=c2/sc3n(c2=O)C(c2ccccc2OC)C2=C(N=3)c3ccccc3CC2)cc1O (configuration not stated) | inconclusive: -11.8% | – |
| Cc1noc(C)c1S(=O)(=O)Nc1ccc2c(c1)C(=O)N([C@H](C)CO)C[C@H](C)[C@@H](CN(C)C(=O)Nc1ccc3c(c1)OCO3)O2 | inconclusive: 1.38% | – |
| Cc1ccc(C(NC(=O)NCCCN2CCOCC2)=C(Cl)Cl)cc1F | inconclusive: -1.03% | – |
| O=C(Cc1cccs1)NNC(=S)NC(=O)c1ccc(F)c(F)c1 | inconclusive: -25% | – |
| O=C(CSc1nccc(=O)[nH]1)N1N=C2/C(=C/c3ccco3)CCCC2C1c1ccco1 (configuration not stated) | – | inconclusive: 7.94 µM [rising, partial curve, poor fit] |
| Cc1cc(=O)[nH]c(-c2ccc(Cl)cc2)n1 | inconclusive: 9.86% | – |
| Cc1ccc(NC(=O)CSc2nnc(Cn3cnc4ccccc43)o2)c(C)c1 | inconclusive: -8.38% | – |
| COc1ccc(CNC(=O)c2ccc(NC(=O)C3=CSCCO3)cc2)cc1 | inconclusive: 5.65% | – |
| O=C(NCc1ccccc1)c1cccc2c1C(=O)c1ccc(/C=C/c3ccccc3)cc1S2(=O)=O | inconclusive: -20.6% | – |
| COc1ccc(NC(=O)c2[nH]c(C)c(C(C)=O)c2C)cc1S(=O)(=O)N1CCOCC1 | inconclusive: -19.1% | – |
| CCn1cc(C(=O)O)c(=O)c2cnc(N3CCN(C(=S)Nc4ccccc4Cl)CC3)nc21 | inactive: 1.29% | – |
| Cc1ccc(NC(=O)CSc2n[nH]c(-c3ccncc3)n2)cc1C | inconclusive: -1.17% | – |
| O=C(c1ccc(C(F)(F)F)cc1)C1CCCN(Cc2cccn2-c2ncccn2)C1 (configuration not stated) | inactive: 0.84% | – |
| COc1ccc(OC)c(-c2cc(C(=O)Nc3ccc(F)cc3F)no2)c1 | – | inconclusive: 2.51 µM [falling, full curve, poor fit] |
| COCC(=O)Nc1ccccc1-c1ccccc1 | inconclusive: 5.16% | – |
| CC1CC(C)CN(C(=O)COC(=O)Cc2ccc(Cl)cc2)C1 (configuration not stated) | inconclusive: 6.78% | – |
| Oc1ccccc1Nc1nc(NCC2CCCO2)c2ccccc2n1 (configuration not stated) | inconclusive: 4.92% | – |
| Cn1c(N)c(C(=O)COC(=O)c2cc(S(=O)(=O)N3CCOCC3)ccc2F)c(=O)n(C)c1=O | inconclusive: -14.4% | – |
| CCOC(=O)/C=C/C(=O)OCC(=O)NCc1ccccc1 | inconclusive: 5.56% | – |
| Cc1ccc(-c2nc(C=Nc3ccccc3)c(O)o2)cc1 | – | inconclusive: 25.1 µM [falling, single point] |
| C=CCn1c(C)cc(C2=NNC(=NC(C)(C)C)SC2)c1C | inconclusive: 7.58% | – |
| COc1cc(C(=O)NCCOc2cc(C)cc(C)c2)cc(OC)c1OC | inconclusive: -1.77% | – |

In a second layout: results already given.
SMILES,"activity change, negative = inhibition",Potency
O=C(CSc1nccc(=O)[nH]1)N1N=C2/C(=C/c3ccco3)CCCC2C1c1ccco1 (configuration not stated),–,"inconclusive: 7.94 µM [rising, partial curve, poor fit]"
Cc1cc(=O)[nH]c(-c2ccc(Cl)cc2)n1,inconclusive: 9.86%,–
Cc1ccc(NC(=O)CSc2nnc(Cn3cnc4ccccc43)o2)c(C)c1,inconclusive: -8.38%,–
